Test results from the supplement of paper PMC10735217.
Counter-ions that a name gives are not always drawn. The list shows a part of the results. This data set is noisy: repeats of one test often differ as much as different tests do.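 In a drug-repurposing library screen, luminescence reads luciferase driven by eight TEAD-binding elements, stably integrated into human kidney-derived cells. Compounds scoring over five robust Z scores above the plate mean are called hits.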

System: HEK293A TEAD-LUC reporter
Assay: TEAD-luciferase reporter activity (YAP activation), robust Z score vs plate; higher = stronger YAP/TEAD activation
Settings: 24 h

| Compound | TEAD-luciferase reporter activity (compound concentration: 200 nM) | TEAD-luciferase reporter activity (compound concentration: 2 uM) | TEAD-luciferase reporter activity (compound concentration: 10 uM) |
| --- | --- | --- | --- |
| CN1N=C2CCN(C(=O)[C@@H](COCc3ccccc3)NC(=O)C(C)(C)N)CC2(Cc2ccccc2)C1=O (some centres not stated) | inactive: 2.7 | inactive: -0.717 | inactive: 0.943 |
| N=C(N)NCCC[C@H](NC(=O)[C@@H]1CCCN1C(=O)[C@H](CC(=O)O)NC(=O)[C@H](CO)NC(=O)[C@@H](N)CC(=O)O)C(=O)O | inactive: -0.228 | inactive: 0.633 | inactive: -0.608 |
| CN(C)C(=O)N[C@H]1CC[C@H](CCN2CCN(c3cccc(Cl)c3Cl)CC2)CC1 [cariprazine hydrochloride, prolonged-release] | inactive: -1.21 | inactive: -1.15 | inactive: -2.24 |
| CN/C(=N\S(=O)(=O)c1ccc(C(F)(F)F)cc1)N1C[C@@H](c2ccccc2)C(c2ccc(Cl)cc2)=N1 | inactive: -0.0494 | inactive: -1.06 | inactive: -0.854 |
| Cc1cc(CC(OC(=O)N2CCC(N3CCc4ccccc4NC3=O)CC2)C(=O)N2CCC(N3CCOCC3)CC2)cc(C)c1O (configuration not stated) | inactive: -0.416 | inactive: -0.873 | inactive: -0.936 |
| C=C(C)[C@@H]1CC[C@]2(CO)CC[C@]3(C)[C@H](CC[C@@H]4[C@@]5(C)CC[C@H](O)C(C)(C)[C@@H]5CC[C@]43C)[C@@H]12 [Betulin] | inactive: -1.82 | inactive: 1.32 | inactive: 1.35 |
| CN(C)C(=O)NC1CC2(CCN(C(=O)c3ccc4[nH]ccc4c3)CC2)Oc2ccccc21 (configuration not stated) | inactive: 1.1 | – | inactive: -0.501 |
| O=c1[nH]c2cc(C(F)(F)F)c(N3CCOCC3)cc2n(CP(=O)(O)O)c1=O [Fanapanel] | inactive: -1.54 | inactive: -0.681 | inactive: -0.184 |
| OCCN1CCN(CCC=C2c3ccccc3Sc3ccc(C(F)(F)F)cc32)CC1 [Flupentixol hydrochloride] | inactive: -1.37 | inactive: -0.102 | inactive: -0.191 |
| CCCCC1(O)C(=O)N(c2ccccc2)N(c2ccccc2)C1=O | inactive: -1.69 | inactive: 0.265 | inactive: -1.14 |
| CN(Cc1cccc(C(F)(F)F)c1)C1CCc2ccccc21 (configuration not stated) | inactive: 0.808 | – | active: 15.7 |
| Cc1cnn(C2CCN(c3nc4ccccc4n3Cc3ccc(F)cc3)CC2)c1 [H1 receptor antagonist, Neuroc] | inactive: -0.148 | – | inactive: 0.855 |
| Cc1cnn(C2CCN(c3nc4ccccc4n3Cc3ccc(F)cc3)CC2)c1 [H1 receptor antagonist] | – | inactive: 0.255 | – |
| CN(C)c1ncnc2c1ncn2CCCCCOC(=O)NC(CCCNC(=N)N)C(=O)O (configuration not stated) [Pharmaprojects No. 4667] | inactive: -0.814 | inactive: -0.0233 | inactive: 0.871 |
| COc1cc(C(F)(F)F)cc(C(F)(F)F)c1C(=O)NC(c1ccccc1)C(C)(C)N1CCCC1 (configuration not stated) | inactive: 3.45 | inactive: -0.28 | inactive: 1.57 |
| CN(C)CCn1cnc2c1c(=O)n(C)c(=O)n2C | inactive: 0.884 | inactive: -0.582 | inactive: -0.174 |
| COc1ccc(CN2CCCCC23Cc2ccccc2CN(C(C)=O)C3)cc1 (configuration not stated) | inactive: 2.22 | – | inactive: -0.546 |

Just TEAD-luciferase reporter activity (compound concentration: 2 uM) (three entries from above):
Compound | TEAD-luciferase reporter activity (compound concentration: 2 uM)
CN/C(=N\S(=O)(=O)c1ccc(C(F)(F)F)cc1)N1C[C@@H](c2ccccc2)C(c2ccc(Cl)cc2)=N1 | inactive: -1.06
Cc1cc(CC(OC(=O)N2CCC(N3CCc4ccccc4NC3=O)CC2)C(=O)N2CCC(N3CCOCC3)CC2)cc(C)c1O (configuration not stated) | inactive: -0.873
C=C(C)[C@@H]1CC[C@]2(CO)CC[C@]3(C)[C@H](CC[C@@H]4[C@@]5(C)CC[C@H](O)C(C)(C)[C@@H]5CC[C@]43C)[C@@H]12 [Betulin] | inactive: 1.32

(further entries)

| Compound | TEAD-luciferase reporter activity (compound concentration: 200 nM) | TEAD-luciferase reporter activity (compound concentration: 2 uM) | TEAD-luciferase reporter activity (compound concentration: 10 uM) |
| --- | --- | --- | --- |
| Cc1ccccc1-c1nc(NC2CCCCC2)ncc1N(C)C(=O)C(C)(C)c1cc(C(F)(F)F)cc(C(F)(F)F)c1 | inactive: 1.21 | inactive: -1.77 | inactive: 1.22 |
| CC(CNC1CCCCC1)OC(=O)c1ccccc1 (configuration not stated) | inactive: -0.221 | inactive: -1 | inactive: 1.53 |
| CSCC[C@H](N)C(=O)N[C@@]1(C(=O)O)CS(=O)(=O)[C@H]2[C@H](C(=O)O)[C@H]21 [pomaglumetad methionil] | inactive: 0.782 | inactive: 0.301 | inactive: 0.709 |
| CC(=O)OCC(=O)[C@@]1(O)CC[C@H]2[C@@H]3CCC4=CC(=O)CC[C@]4(C)[C@H]3[C@@H](O)C[C@@]21C [Hydrocortisone acetate] | – | inactive: -1.16 | – |
| CC(=O)OCC(=O)[C@@]1(O)CC[C@H]2[C@@H]3CCC4=CC(=O)CC[C@]4(C)[C@H]3[C@@H](O)C[C@@]21C [Cortell] | inactive: -0.567 | – | inactive: 0.648 |
| C[C@@]12C=Cc3occc3C1CC[C@@]13C[C@@H](CCC12)[C@@](O)(CO)C3 (some centres not stated) [Kahweol] | inactive: 1.34 | inactive: 1.08 | inactive: 1.25 |
| CC[N+](C)(C)CCN(C)CC[N+](C)(C)CC | inactive: 0.948 | inactive: -0.618 | inactive: 3.57 |
| O=c1[nH]c(=O)n([C@H]2CC[C@@H](CO)O2)cc1I | inactive: 1.22 | inactive: -2 | inactive: 4.13 |
| Cc1ccccc1Oc1cccc2c(=O)cc(N3CCOCC3)[nH]c12 | inactive: -2.06 | inactive: -0.983 | inactive: -1.16 |
| CC(C)C(=O)Nc1ccc([N+](=O)[O-])c(C(F)(F)F)c1 | inactive: -0.801 | – | inactive: 1.17 |
| CC(C)C(=O)Nc1ccc([N+](=O)[O-])c(C(F)(F)F)c1 [flutamide] | – | inactive: 3.59 | – |
| O=C(O)CCNC(=O)c1ccc(N=Nc2ccc(O)c(C(=O)O)c2)cc1 [balsalazide disodium] | – | inactive: 0.97 | – |
| O=C(O)CCNC(=O)c1ccc(N=Nc2ccc(O)c(C(=O)O)c2)cc1 | inactive: -2.37 | – | inactive: 1.96 |
| Nc1nc(OCCc2ccc(Cl)cc2)nc2c1ncn2[C@H]1O[C@@H](CO)C(O)C1O (some centres not stated) [sonedenoson] | inactive: 2.96 | inactive: 1.1 | active: 16.6 |
| O=C(O)C(Cc1ccccc1)NCc1ccc(Cl)cc1 (configuration not stated) | inactive: 0.582 | inactive: 1.67 | inactive: 0.945 |
| C=CC(=O)N[C@@H]1CN(c2nc(Nc3cn(C)nc3OC)c3ncn(C)c3n2)C[C@H]1F | inactive: -0.487 | inactive: 0.411 | inactive: -1.38 |
| CO[C@@H]1[C@H](O)[C@@H](CO)O[C@H]1n1cnc2c(NC3CCCCC3)ncnc21 | inactive: -0.97 | inactive: -1.65 | inactive: -0.885 |
